# About 7,500 (2.1%) of roughly 360,000 compounds were called active. The inconclusive results got no clear call from the source; some entries with a clear call stand among them for comparison. Calls come from the whole dose curve; as a rule, active = well fitted inhibition curve with a large enough effect; inconclusive = small, poorly fitted or top-dose-only effect, or effect the other way; inactive = flat fitted curve, though single readings scatter. Where the call is inconclusive, the potency comes from a doubtful curve fit.
# Assay: Nrf2 qHTS screen for inhibitors; note: nearly all actives have a fitted effect of over 60% in size
# Conditions: A549 ARE-Fluc reporter, luciferase luminescence, 18-24 h; series mostly up to 46 µM
# Method in brief: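 Two sequential reads on A549 ARE_Fluc cells exposed to compound for 18-24 h: a CellTiter-Fluor fluorescence read for viability, then a luciferase luminescence read for Nrf2/ARE activity.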
# Potency is the fitted concentration of half-maximal effect.
row,SMILES,Potency
1,Cc1cc2cc(CN(Cc3ccc4c(c3)OCO4)Cc3nnnn3C3CCCC3)c(=O)[nH]c2cc1C,"inconclusive: 29.1 µM [falling, single point]"
2,COCCOC(=O)c1[nH]c2c(c1C)C(=O)CC(c1ccc(F)cc1)C2 (stereo not given),"inconclusive: 20.6 µM [falling, partial curve, poor fit]"
3,Cc1ccc(NC(=O)c2ccc(CSc3ncnc4nc[nH]c34)cc2)c(C)c1,"inconclusive: 29.1 µM [falling, single point]"
4,Cn1ccc(C(=O)NC(=S)Nc2ccc([N+](=O)[O-])cc2O)n1,"inconclusive: 25.9 µM [activator, single point]"
5,CC(C)c1ccc(/C=N/NC(=O)c2ccccn2)cc1,"inconclusive: 20.6 µM [falling, single point]"
6,Cc1ccc(Cn2c(CCNC(=O)c3cccc(C)c3)nc3ccccc32)cc1,"inconclusive: 29.1 µM [falling, single point]"
7,O=C(Nc1c2c(nn1-c1ccccc1)CS(=O)(=O)C2)C1CCCC1,"inconclusive: 20.6 µM [activator, partial curve, poor fit]"
8,CCOc1ccccc1C1NC(=O)NC(C)=C1C(=O)OCc1ccco1 (stereo not given),"inconclusive: 5.8 µM [falling, full curve]"
9,CSc1ccc(CN(C)CC(=O)NCc2ccccc2)cc1,"inconclusive: 14.6 µM [falling, partial curve, poor fit]"
10,Cc1cccn2cc(-c3ccc(S(=O)(=O)N4CCOCC4)cc3)nc12,inactive
11,Fc1ccc(CN2CCCCCC2)c(F)c1,inactive
12,Cn1c(=NC(=O)CCl)sc2ccccc21,"inconclusive: 9.2 µM [falling, partial curve]"
13,COc1ccc(S(=O)(=O)Nc2ccc(S(=O)(=O)N(C)C)cc2)cc1[N+](=O)[O-],"inconclusive: 20.6 µM [falling, single point]"
14,COc1ccc(N2C(=O)CC(NCCNc3ccc([N+](=O)[O-])cn3)C2=O)cc1 (stereo not given),inactive
15,CCC(C)Sc1cc(-c2nc3cc(C)ccn3c2NC2CCCCC2)ccc1OC (stereo not given),"inconclusive: 29.1 µM [falling, single point]"
16,Cc1c(Cl)cccc1NC(=S)N=Nc1c(O)n(CN2CCOCC2)c2ccccc12,"inconclusive: 8.2 µM [activator, partial curve, poor fit]"
17,Cc1ccc(CCNS(=O)(=O)c2ccc3c(c2)C(C(C)C)C(=O)N3)cc1 (stereo not given),inactive
18,Cc1cccc2cc(CN(CC3CCCO3)C(=O)c3ccco3)c(=O)[nH]c12 (stereo not given),"inconclusive: 7.31 µM [activator, single point]"
19,CC(=O)N(C)c1ccc(NC(=O)C(Sc2ccccc2)c2ccccc2)cc1 (stereo not given),"inconclusive: 29.1 µM [activator, single point]"
20,CC1=CC(=O)C(C(C)C)=C/C1=N/OS(=O)(=O)c1ccccc1,"inconclusive: 29.1 µM [falling, single point]"

row,SMILES,Potency
1,COc1ccccc1CCN1CCCC(CN(C)C(=O)CCC(N)=O)C1 (stereo not given),"inconclusive: 0.82 µM [falling, full curve]"
2,CCCOC1CCCN(C(=O)CCc2nnc(-c3ccc4c(c3)OCO4)o2)C1 (stereo not given),"inconclusive: 5.8 µM [activator, single point]"
3,CC(=O)N1c2ccccc2C(=O)C1N1CCN(c2cccc(Cl)c2)CC1 (stereo not given),"inconclusive: 18.4 µM [activator, partial curve, poor fit]"
4,COc1cc(C(=O)NNC(=O)Nc2ccc([N+](=O)[O-])cc2)cc(OC)c1OC,"inconclusive: 3.66 µM [activator, full curve]"
5,COc1ccc(NC(=O)c2ccc(-c3ccc([N+](=O)[O-])cc3)o2)cc1OC,"inconclusive: 20.6 µM [falling, single point]"
6,CN(C)CCNC(=O)CN1C(=O)COc2ccc(C(C)(C)C)cc21,"inconclusive: 9.2 µM [activator, partial curve, poor fit]"
7,O=C(CCOc1ccccc1)N1CCN(c2ccc(O)cc2)CC1,"inconclusive: 9.2 µM [falling, partial curve]"
8,[O-][n+]1c2c(nn1-c1ccc(Cl)c(Cl)c1)-c1nonc1CC2,"inconclusive: 0.146 µM [activator, full curve, poor fit]"
9,CCOC(=O)c1cnn(-c2ccc(C(F)(F)F)cn2)c1N,"inconclusive: 7.31 µM [activator, partial curve, poor fit]"
10,O=C(CC12CC3CC(CC(C3)C1)C2)N/N=C/c1ccc([N+](=O)[O-])o1,"inconclusive: 5.17 µM [falling, single point]"
11,CCCS(=O)(=O)Nc1ccc(Nc2c3ccccc3nc3ccccc23)c(OC)c1,"inconclusive: 0.13 µM [falling, full curve]"
12,Cc1cc(S(=O)(=O)NC2CCCCC2)ccc1-n1cnnn1,active: 11.6 µM
13,COC(=O)c1ccccc1NC(=O)c1nc(-c2ccc(C)cc2)n2c1CCCCC2,"inconclusive: 1.64 µM [activator, partial curve, poor fit]"
14,O=C(CN1C(=O)CSC1=O)NCc1ccccc1,"inconclusive: 0.651 µM [activator, partial curve, poor fit]"
15,c1coc(CNc2c3c(nc4ccccc24)CCC3)c1,"inconclusive: 32.6 µM [falling, single point]"
16,O=C(NC(=S)Nc1ccc(CN2CCOCC2)cc1)c1ccc2c(c1)OCCO2,"inconclusive: 18.4 µM [falling, single point]"
17,O=c1cc(-c2ccc3c(c2)OCCO3)oc2ccc(Cl)cc12,"inconclusive: 7.31 µM [activator, partial curve, poor fit]"
18,CN(C(=O)c1cccnc1)c1nnc(-c2ccccn2)s1,"inconclusive: 20 µM [activator, partial curve, poor fit]"
19,CCOC(=O)c1ccc(NC(=O)CSc2nc3c(c(=O)[nH]2)CN(Cc2ccccc2)CC3)cc1,"inconclusive: 9.2 µM [falling, partial curve, poor fit]"
20,Cc1cc2ncc(-c3ccccc3)nc2cc1C,"inconclusive: 8.2 µM [activator, partial curve]"

# Looked up one by one from the list above, three records:
row,SMILES,Potency
13,COC(=O)c1ccccc1NC(=O)c1nc(-c2ccc(C)cc2)n2c1CCCCC2,"inconclusive: 1.64 µM [activator, partial curve, poor fit]"
18,CN(C(=O)c1cccnc1)c1nnc(-c2ccccn2)s1,"inconclusive: 20 µM [activator, partial curve, poor fit]"
7,O=C(CCOc1ccccc1)N1CCN(c2ccc(O)cc2)CC1,"inconclusive: 9.2 µM [falling, partial curve]"

# Source: PubChem BioAssay AID504444 (National Center for Advancing Translational Sciences (NCATS), 2011)
